Measured values reported in PMC6889161, “Inhibitory characteristics of flavonol-3-O-glycosides from Polygonum aviculare L. (common knotgrass) against porcine pancreatic lipase” (Scientific Reports, 2019).

System: T1, pancreatic lipase (PL)
T1 construct: purchased Sigma-Aldrich Co. (St. Louis, MO, USA); host or cells: porcine pancreas (tissue preparation)
Experiment: Circular dichroism of PL secondary structure
Parameters: species or system porcine
Details: for Change in β-turn content of PL versus control: control 20.0%; for Change in antiparallel β-sheet content of PL versus control: control 33.0%; for Change in α-helix content of PL versus control: control 18.7%

| Structure (SMILES) | Change in β-turn content of PL versus control (compound 200 μM) [%] | Change in antiparallel β-sheet content of PL versus control (compound 200 μM) [%] | Change in α-helix content of PL versus control (compound 400 μM) [%] | Change in α-helix content of PL versus control (compound 200 μM) [%] | Change in β-turn content of PL versus control (compound 400 μM) [%] | Change in antiparallel β-sheet content of PL versus control (compound 400 μM) [%] |
| --- | --- | --- | --- | --- | --- | --- |
| O=c1c(O)c(-c2ccc(O)cc2)oc2cc(O)cc(O)c12 [Kaempferol] | −0.1 | −0.5 | −0.2 |  |  |  |
| O=c1c(O)c(-c2ccc(O)c(O)c2)oc2cc(O)cc(O)c12 [Quercetin] |  |  | −0.3 | −0.4 |  |  |
| O=c1c(O[C@@H]2O[C@@H](CO)[C@H](O)[C@H]2O)c(-c2ccc(O)c(O)c2)oc2cc(O)cc(O)c12 [Avicularin, quercetin-3-O-α-L-arabinofuranoside] | −0.1 | −0.1 | −0.1 | −0.1 | −0.1 | −0.2 |
| C[C@@H]1O[C@@H](Oc2c(-c3ccc(O)c(O)c3)oc3cc(O)cc(O)c3c2=O)[C@H](O)[C@H](O)[C@H]1O [Quercitrin, quercetin-3-O-α-L-rhamnopyranoside] | −0.1 |  | −0.2 | −0.2 | −0.1 |  |
